Measurements reported in article PMC11747798.
These are yes or no findings as the source states them, for the method shown. Binding seen in cells or lysates may run through a third protein. Binding calls can cover weak binding; strength is not graded here. Sequences can lack the tags named with a protein. Each block holds one molecule with its values, some of them ahead of it.

Experiments:
[1] = molecular target: T1, FLAG-full length RITA (RBP-J interacting and tubulin-associated protein) (UniProt Q96K30); assay: co-IP; HEK293T transfected with FLAG vector or FLAG-RITA for 48 h, treated with DMSO, 10 µM nocodazole or 10 µM paclitaxel for 30 min; lysates precipitated with anti-FLAG agarose beads at 4°C overnight; Western blot
T1 sequence: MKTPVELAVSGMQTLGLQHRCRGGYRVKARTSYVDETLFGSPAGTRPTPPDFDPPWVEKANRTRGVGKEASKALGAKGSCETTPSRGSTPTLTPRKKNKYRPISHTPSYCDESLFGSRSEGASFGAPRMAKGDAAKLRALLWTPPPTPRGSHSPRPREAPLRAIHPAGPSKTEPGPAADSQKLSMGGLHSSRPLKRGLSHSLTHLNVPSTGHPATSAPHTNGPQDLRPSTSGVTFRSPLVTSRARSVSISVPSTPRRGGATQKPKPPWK

[2] = molecular target: tubulin (human (endogenous in HEK293T)); assay: co-IP; HEK293T transfected with FLAG vector or FLAG-RITA for 48 h; lysates precipitated with mouse monoclonal anti-α-tubulin antibody and Protein G Sepharose at 4°C overnight; Western blot with PRC1 and FLAG antibodies; also after DMSO, 10 µM nocodazole or 10 µM paclitaxel for 30 min (lysis in RIPA buffer with the same agent)

binding [1]: binds
Molecule: tubulin (human (endogenous in HEK293T))

binding [2]: binds
B1: FLAG-full length RITA (RBP-J interacting and tubulin-associated protein) (protein, UniProt Q96K30 1-269)
chain: T1 sequence
